The text below walks through data of article doi:10.1101/2022.07.24.499430.

Amino acid sequences for entries named in this document (tags omitted).
UniProt Q07812, whole entry: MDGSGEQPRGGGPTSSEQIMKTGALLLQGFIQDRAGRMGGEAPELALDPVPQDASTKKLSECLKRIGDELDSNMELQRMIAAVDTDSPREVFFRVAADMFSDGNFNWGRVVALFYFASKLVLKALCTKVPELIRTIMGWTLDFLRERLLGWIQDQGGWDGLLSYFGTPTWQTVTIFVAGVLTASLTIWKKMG
UniProt Q16611, whole entry: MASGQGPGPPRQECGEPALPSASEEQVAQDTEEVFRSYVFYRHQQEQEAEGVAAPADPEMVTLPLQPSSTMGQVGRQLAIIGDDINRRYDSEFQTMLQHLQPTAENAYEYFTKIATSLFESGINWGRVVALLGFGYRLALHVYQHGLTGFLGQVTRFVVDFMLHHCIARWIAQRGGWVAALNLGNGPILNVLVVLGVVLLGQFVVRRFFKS

The target in this assay is T1, HA-tagged wildtype BNIP5 (Bcl-2 interacting protein 5) (not stated (human or mouse cDNA cloned)) (UniProt P0C671).
T1 sequence: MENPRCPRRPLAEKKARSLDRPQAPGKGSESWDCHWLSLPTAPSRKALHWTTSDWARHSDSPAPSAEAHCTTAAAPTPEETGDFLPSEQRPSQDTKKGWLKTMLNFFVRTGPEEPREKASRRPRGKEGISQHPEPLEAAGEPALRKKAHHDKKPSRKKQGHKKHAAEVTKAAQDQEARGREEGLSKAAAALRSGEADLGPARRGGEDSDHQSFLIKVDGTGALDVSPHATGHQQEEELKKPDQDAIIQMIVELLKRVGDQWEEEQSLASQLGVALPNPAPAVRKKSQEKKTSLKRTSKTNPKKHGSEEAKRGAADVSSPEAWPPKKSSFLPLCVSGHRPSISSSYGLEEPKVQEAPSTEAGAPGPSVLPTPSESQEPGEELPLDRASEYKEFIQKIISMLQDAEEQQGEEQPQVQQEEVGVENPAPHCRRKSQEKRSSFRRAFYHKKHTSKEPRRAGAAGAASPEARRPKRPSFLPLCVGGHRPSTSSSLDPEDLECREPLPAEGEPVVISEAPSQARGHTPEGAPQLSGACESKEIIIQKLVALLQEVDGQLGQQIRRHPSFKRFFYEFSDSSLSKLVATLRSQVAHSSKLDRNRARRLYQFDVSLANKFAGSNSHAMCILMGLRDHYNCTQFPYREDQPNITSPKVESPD
In words: co-IP.

No constants are given. Whether binding was seen depends on the method and setting. In cells and extracts the contact can be indirect. Some results given as binding are weak or reduced against the parent protein; the word gives no strength. Where a sequence is shown, tags or fusion partners need not be part of it.

Consider “Bax (Bcl-2 associated x) in HEK293T (from UniProt Q07812 1-192)”, for which the binding entry is “no binding”.

As to “Bak (Bcl-2 antagonist killer), endogenous in HEK293T (from UniProt Q16611 1-211)”, the binding result is “binds”.
